Record: PubChem BioAssay AID1224830 (NIAID, 2016)
The whole screen tested about 18,000 reagents; this is an unselected part. In the full data, about 2,900 (16%) got an active call. 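Calls are made per well; low scores hint the gene aids the LPS response, high scores that it dampens it.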 Entries without a mark were called inactive. Repeated entries: four replicate wells of each siRNA pool. No sequences are given here.

Purpose: 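Regulators of TLR4 signalling towards TNF-alpha in macrophage-like cells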 (primary screen)
Cell system: human THP-1 monocytic leukaemia cells, TNF dual-luciferase reporter clone, PMA-differentiated to macrophage-like cells
Knock-down reagent: siRNA pool against human genes, 50 nM
Time to read-out: LPS for 4 h, given about 3 days after siRNA transfection
Treatment: bacterial LPS (TLR4 ligand), 10 ng/ml
Detection: 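Ratio of firefly to renilla light, scaled to the plate median and expressed as a robust z-score per replicate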
Scale: TNF reporter robust z-score: higher = stronger TNF reporter response to LPS
Rule for the call: 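a well is active when its z-score exceeds 2.8 or falls below -1.5; control wells carry no call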

TNF reporter robust z-score	target gene	PubChem SID
-0.03	LRMDA	SID315460136
-0.53	LRMDA	SID315460136
-0.07	LRMDA	SID315460136
-0.54	LRMDA	SID315460136
-1.27	RNASE13	SID315464896
-1.09	RNASE13	SID315464896
-1.01	RNASE13	SID315464896
-1.13	RNASE13	SID315464896
-1.53 (active)	R3HDM2	SID315454827
-0.56	R3HDM2	SID315454827
-1	R3HDM2	SID315454827
-1.26	R3HDM2	SID315454827
-1.25	BPY2C	SID315464977
-0.71	BPY2C	SID315464977
-1.16	BPY2C	SID315464977
0.26	BPY2C	SID315464977
-0.35	PPP1R18	SID315462919
0.59	PPP1R18	SID315462919
0.25	PPP1R18	SID315462919
-0.47	PPP1R18	SID315462919
1.6	ZNF790	SID315464492
1.28	ZNF790	SID315464492
0.07	ZNF790	SID315464492
0.14	ZNF790	SID315464492

Reformatted: entries from further up.
RNASE13 [SID315464896] → TNF reporter robust z-score = -1.01
RNASE13 [SID315464896] → TNF reporter robust z-score = -1.13
R3HDM2 [SID315454827] → TNF reporter robust z-score = -1.53 (active)
R3HDM2 [SID315454827] → TNF reporter robust z-score = -0.56

The listing continues.
TNF reporter robust z-score	target gene	PubChem SID
-0.91	MICAL1	SID315458990
-1.34	MICAL1	SID315458990
-0.87	MICAL1	SID315458990
-0.85	MICAL1	SID315458990
2.64	ACBD4	SID315459451
3.63 (active)	ACBD4	SID315459451
0.62	ACBD4	SID315459451
0.32	ACBD4	SID315459451
-1.06	AMOTL2	SID315456701
0.12	AMOTL2	SID315456701
-1.58 (active)	AMOTL2	SID315456701
-0.54	AMOTL2	SID315456701
-0.56	TRIP4	SID315453199
-0.76	TRIP4	SID315453199
-0.19	TRIP4	SID315453199
-0.05	TRIP4	SID315453199
-0.1	OR5K1	SID315455775
0.4	OR5K1	SID315455775
0.32	OR5K1	SID315455775
-0.56	OR5K1	SID315455775
1.96	DHX32	SID315457834
2.22	DHX32	SID315457834
1.59	DHX32	SID315457834
1.93	DHX32	SID315457834
